Experimental findings from paper PMC6955280 are described below.

Chains of the proteins cited; added tags and fusions are not shown. Lines headed by an entry give the natural chain unless they say otherwise; changes in a name come on top. A line that says so, or that is headed by a name, gives the form on record, which may keep a tag or linker. Residues count along the entry.
UniProt Q2HR73: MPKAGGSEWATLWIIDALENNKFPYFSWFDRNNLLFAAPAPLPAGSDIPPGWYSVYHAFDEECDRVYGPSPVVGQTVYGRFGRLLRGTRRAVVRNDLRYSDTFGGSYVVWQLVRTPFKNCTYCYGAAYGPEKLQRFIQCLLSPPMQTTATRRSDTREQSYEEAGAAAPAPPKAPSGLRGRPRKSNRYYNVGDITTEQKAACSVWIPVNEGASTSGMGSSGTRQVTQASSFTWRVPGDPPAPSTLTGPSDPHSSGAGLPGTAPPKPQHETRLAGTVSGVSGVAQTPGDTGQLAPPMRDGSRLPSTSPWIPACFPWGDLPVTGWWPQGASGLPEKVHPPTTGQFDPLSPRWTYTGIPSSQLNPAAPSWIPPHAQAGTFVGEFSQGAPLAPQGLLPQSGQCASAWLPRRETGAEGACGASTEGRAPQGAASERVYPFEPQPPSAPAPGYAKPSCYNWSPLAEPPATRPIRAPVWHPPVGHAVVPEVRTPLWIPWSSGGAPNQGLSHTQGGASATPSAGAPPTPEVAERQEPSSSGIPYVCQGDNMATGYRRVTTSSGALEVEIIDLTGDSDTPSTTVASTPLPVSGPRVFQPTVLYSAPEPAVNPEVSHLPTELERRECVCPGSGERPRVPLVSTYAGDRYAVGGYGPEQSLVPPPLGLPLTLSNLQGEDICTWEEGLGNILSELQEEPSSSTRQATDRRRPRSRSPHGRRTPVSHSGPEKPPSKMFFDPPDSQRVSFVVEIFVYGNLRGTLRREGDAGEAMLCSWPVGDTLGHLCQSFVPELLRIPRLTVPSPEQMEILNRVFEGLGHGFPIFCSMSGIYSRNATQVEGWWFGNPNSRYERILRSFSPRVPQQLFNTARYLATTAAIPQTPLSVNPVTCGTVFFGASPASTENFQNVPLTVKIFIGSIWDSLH
UniProt Q93009: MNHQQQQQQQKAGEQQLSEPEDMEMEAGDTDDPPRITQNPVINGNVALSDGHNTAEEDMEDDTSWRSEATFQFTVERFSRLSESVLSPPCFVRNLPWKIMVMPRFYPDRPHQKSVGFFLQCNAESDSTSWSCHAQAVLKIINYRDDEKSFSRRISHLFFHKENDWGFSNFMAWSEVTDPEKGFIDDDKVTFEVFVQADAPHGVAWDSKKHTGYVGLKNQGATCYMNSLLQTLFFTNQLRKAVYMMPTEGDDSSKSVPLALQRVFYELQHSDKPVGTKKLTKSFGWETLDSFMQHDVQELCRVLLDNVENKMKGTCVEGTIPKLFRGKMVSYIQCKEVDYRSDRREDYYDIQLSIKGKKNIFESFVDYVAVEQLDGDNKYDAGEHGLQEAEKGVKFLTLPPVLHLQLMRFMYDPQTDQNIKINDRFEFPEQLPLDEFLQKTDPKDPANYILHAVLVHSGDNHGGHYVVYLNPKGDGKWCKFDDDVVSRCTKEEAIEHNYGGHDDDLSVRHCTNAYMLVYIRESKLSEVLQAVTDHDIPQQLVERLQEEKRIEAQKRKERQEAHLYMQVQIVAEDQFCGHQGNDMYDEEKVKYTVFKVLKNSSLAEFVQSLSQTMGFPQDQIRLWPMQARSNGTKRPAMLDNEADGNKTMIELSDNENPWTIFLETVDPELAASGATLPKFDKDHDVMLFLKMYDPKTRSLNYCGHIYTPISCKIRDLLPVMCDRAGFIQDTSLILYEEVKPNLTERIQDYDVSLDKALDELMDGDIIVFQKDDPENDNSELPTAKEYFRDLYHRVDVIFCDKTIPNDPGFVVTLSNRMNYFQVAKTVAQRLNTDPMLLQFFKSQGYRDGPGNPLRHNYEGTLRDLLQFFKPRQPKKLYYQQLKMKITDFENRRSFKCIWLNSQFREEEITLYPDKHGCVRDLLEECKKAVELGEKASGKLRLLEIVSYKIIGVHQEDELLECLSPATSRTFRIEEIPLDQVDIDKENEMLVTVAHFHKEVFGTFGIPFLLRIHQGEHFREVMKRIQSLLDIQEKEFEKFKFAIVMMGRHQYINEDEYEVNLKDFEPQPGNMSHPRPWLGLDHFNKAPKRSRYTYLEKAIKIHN
His6-linked USP7 residues 1 to 207 (N-terminal domain) (Q93009-3, form named): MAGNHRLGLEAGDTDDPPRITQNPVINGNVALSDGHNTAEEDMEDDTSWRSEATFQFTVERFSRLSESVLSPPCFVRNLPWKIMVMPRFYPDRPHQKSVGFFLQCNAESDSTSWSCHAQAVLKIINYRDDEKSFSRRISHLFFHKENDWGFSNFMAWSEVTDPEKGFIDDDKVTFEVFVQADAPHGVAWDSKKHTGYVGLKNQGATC

The target of assay [1] is vIRF-4-CBD (human herpesvirus 8 (HHV-8)) (UniProt Q2HR73). Nature of the assay: pull-down; only the binder purified.
Assay [2] deals with T1, S-tagged TRAF2 (pCEBZ-TRAF2-S) (UniProt Q12933).
T1 sequence: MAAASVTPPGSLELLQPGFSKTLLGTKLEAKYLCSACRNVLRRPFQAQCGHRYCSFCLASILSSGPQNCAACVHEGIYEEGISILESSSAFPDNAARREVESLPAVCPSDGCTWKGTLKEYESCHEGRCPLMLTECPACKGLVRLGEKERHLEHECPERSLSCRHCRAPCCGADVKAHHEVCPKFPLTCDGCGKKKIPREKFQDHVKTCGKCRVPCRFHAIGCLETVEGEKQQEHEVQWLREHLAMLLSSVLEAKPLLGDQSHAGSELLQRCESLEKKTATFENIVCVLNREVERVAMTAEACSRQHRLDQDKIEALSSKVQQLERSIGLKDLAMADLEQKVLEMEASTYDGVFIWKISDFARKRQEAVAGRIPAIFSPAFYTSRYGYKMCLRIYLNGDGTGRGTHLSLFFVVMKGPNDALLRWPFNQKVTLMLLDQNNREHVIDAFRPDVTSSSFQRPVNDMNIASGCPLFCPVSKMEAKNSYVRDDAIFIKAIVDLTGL
Nature of the assay: co-IP.

Assay [3] concerns the target T2, S-tagged TRAF1 (pCEBZ-TRAF1-S) (UniProt Q13077).
T2 sequence: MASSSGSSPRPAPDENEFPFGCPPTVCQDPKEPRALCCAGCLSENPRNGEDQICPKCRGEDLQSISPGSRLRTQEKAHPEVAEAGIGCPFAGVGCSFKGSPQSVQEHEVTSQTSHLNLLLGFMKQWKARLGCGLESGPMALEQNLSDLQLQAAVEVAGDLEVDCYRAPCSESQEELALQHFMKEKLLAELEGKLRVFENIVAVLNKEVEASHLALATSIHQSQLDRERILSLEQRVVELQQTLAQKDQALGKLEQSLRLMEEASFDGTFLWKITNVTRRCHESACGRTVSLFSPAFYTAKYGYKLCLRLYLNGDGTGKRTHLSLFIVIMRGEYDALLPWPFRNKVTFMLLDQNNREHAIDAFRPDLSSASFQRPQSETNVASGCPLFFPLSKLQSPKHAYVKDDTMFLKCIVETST
Nature of the assay: co-IP.

Results are given in words; binding and its absence hold for the method and conditions named. Binding seen in cells or lysates may run through a third protein. Some binding calls cover weakened binding; strength is not graded here. For part of these data: Tags and fused reporters may be left off the sequences shown.

For “His6-linked USP7 residues 1 to 207 (N-terminal domain) (from UniProt Q93009-3 1-207) (domain or fragment)”, the binding result in assay [1] was “binds”. “endogenous USP7 of HEK293T cells (from UniProt Q93009 1-1102) (enzyme)”: the binding result in assay [2] and in assay [3] was “binds” throughout.
